Assay results as given in US20200392251A1.
Results are given in words; binding and its absence hold for the method and conditions named. Binding calls can cover weak binding; strength is not graded here.

Legend:
[1] = biological target: human MMP-12 catalytic domain mutant D4 (cdMMP-12 D4) (human); experiment: ELISA, bio-layer interferometry and competitive ELISA
[2] = biological target: human MMP-12 catalytic domain mutant D4 (cdMMP-12 D4) (human); experiment: ELISA and bio-layer interferometry

binding [1]	binding [2]	Binder
binds	–	anti-MMP-12 Fab LG4 (Fab, V domains shown) VH: EVQLVESGGGLVQPGGSLRLSCAASGFNLYYSYMHWVRQAPGKGLEWVASISSYYGYTSYADSVKGRFTISADTSKNTAYLQMNSLRAEDTAVYYCARSPIVYYELFMFIDMGAQGWKYGMDYWGQGTLVTVSS VL: DIQMTQSPSSLSASVGDRVTITCRASQSVSSAVAWYQQKPGKAPKLLIYSASSLYSGVPSRFSGSRSGTDFTLTISSLQPEDFATYYCQQTFYPFTFGQGTKVEIKR
binds	–	anti-MMP-12 Fab LH11 (Fab, V domains shown) VH: EVQLVESGGGLVQPGGSLRLSCAASGFNLSYYSMHWVRQAPGKGLEWVAYIYPYYGSTYYADSVKGRFTISADTSKNTAYLQMNSLRAEDTAVYYCARFLLSIGKLFVGDGSILHVWL VL: DIQMTQSPSSLSASVGDRVTITCRASQSVSSAVAWYQQKPGKAPKLLIYSASSLYSGVPSRFSGSRSGTDFTLTISSLQPEDFATYYCQQAYYGYLFTFGQGTKVEIKR
binds	binds	anti-MMP-12 Fab LH6 (Fab, V domains shown) VH: EVQLVESGGGLVQPGGSLRLSCAASGFNLSYSYMHWVRQAPGKGLEWVASIYPSYGSTYYADSVKGRFTISADTSKNTAYLQMNSLRAEDTAVYYCARDLEESLPKRARTAVSKELESVPYVMDYWGQGTLVTVSS VL: DIQMTQSPSSLSASVGDRVTITCRASQSVSSAVAWYQQKPGKAPKLLIYSASSLYSGVPSRFSGSRSGTDFTLTISSLQPEDFATYYCQQSSHYASPPITFGQGTKVEIKR
